Out of some 340,000 compounds screened, about 170 (0.05%) were called active. Inconclusive results, whose numbers are uncertain, are shown with a selection of clear calls. Calls follow the shape of the dose curve; as a rule, active = well fitted inhibition curve with a large enough effect in the signal ratio, with a control signal flat (not every such curve was filed as active); inconclusive = small, poorly fitted or top-dose-only effect, or effect the other way, or a change in a side signal; inactive = flat fitted curve, though single readings scatter; the % refers to the signal ratio. Potencies beside an inconclusive call are fits to weak or partial responses and may not hold up.
test: qHTS Assay to Find Inhibitors of Chronic Active B-Cell Receptor Signaling; conditions: ABC-DLBCL IkBa-CBG/CBR reporter, luminescence ratio (green luciferase fused to IkBa over red control in TMD8 lymphoma cells), 4 h; activity change, negative = inhibition: at 46.1 µM (top of the series);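 as to activity change, negative = inhibition: plate controls were basal doxycycline-induced cells for no effect and cells given 10 µM MG132 for full effect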
Procedure, shortened: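 Concentration-response series (up to 46 uM) were applied to TMD8 dual-reporter cells for 4 h at 37C with doxycycline. Green/red ratio, after filter-overlap correction, defined %Activity; red signal alone was normalised to basal cells and zero luminescence.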
Potency is read from the fitted curve at half-maximal effect.

SMILES	Potency	activity change, negative = inhibition
COc1ccc(S(=O)(=O)N(C(C)=O)c2ccc(OC(C)=O)c3ccccc23)cc1[N+](=O)[O-]	inconclusive: 29.1 µM [falling, single point]	–
Cc1ccc(C)c(N2CCN(C(=O)c3ccc4nc(N5CCOCC5)sc4c3)CC2)c1	–	inactive
Cc1occc1C(=O)Nc1nnc(C(F)(F)F)s1	–	inactive
Cc1ccc(C(=O)c2c(NC(=O)CSc3nnc(N)s3)sc3c2CCCC3)cc1	inconclusive: 13 µM [falling, partial curve]	–
Brc1ccc(-c2csc(/N=C/N3CCCC3)n2)cc1	–	inconclusive: -21.9%
COc1ccc(NC(=O)c2cccc3c2C(=O)c2ccc(-c4cnc(OC)nc4)cc2S3(=O)=O)cc1	–	inconclusive: 16.2%
O=C(Nc1ccc2oc(-c3ccccc3F)nc2c1)c1ccc2c(c1)OCCO2	–	inconclusive: -14.9%
COc1cccc(C(=O)NN2C(=O)C3C4C=CC(O4)C3C2=O)c1 (stereo unspecified)	inconclusive: 7.31 µM [falling, partial curve]	–
Cc1cc(N/N=C/c2ccccc2Cl)nc(NCc2ccccc2)n1	–	inconclusive: 5.8%
Cc1cccc(C)c1NC(=O)CCS(=O)(=O)c1cccc2nsnc12	–	inconclusive: 5.42%
O=C(CS(=O)(=O)c1cn(CC(=O)N2CCOCC2)c2ccccc12)Nc1ccccc1F	inconclusive: 7.08 µM [falling, partial curve]	–
Cc1cccc(-n2ncc3c(NCc4ccccc4)ncnc32)c1	–	inactive
CSc1ccc(NC(=O)NCc2ccccc2)cc1	inconclusive: 10 µM [falling, partial curve]	–
COc1ccc(C(CNC(=O)COc2ccccc2)N2CCCCC2)cc1 (stereo unspecified)	–	inactive
O=C(Nc1ccc(-c2nnn(CC(=O)N3CCN(C(=O)c4ccco4)CC3)n2)cc1)c1ccc(F)cc1	inconclusive: 12.6 µM [falling, partial curve, poor fit]	–
O=C(CCC1CCCC1)NC1CCCCC1	inconclusive: 18.4 µM [falling, single point]	–
O=c1nc2n(c3c1oc1ccccc13)Cc1ccccc1-2	inconclusive: 2.51 µM [rising, full curve, poor fit]	–
Cc1ccc(/C=C/C(=O)NCCCc2ccccc2)cc1	–	inactive
O=C(NN=C1CCCC1)c1ccccc1O	inconclusive: 4.47 µM [falling, partial curve]	–
CCOc1ccccc1NC(=O)c1nc2nc(C)cc(C(F)F)n2n1	inconclusive: 1.26 µM [falling, full curve, poor fit]	–
CC1CCc2c(sc(NC(=O)CSc3ncnc4c3cnn4-c3ccccc3Cl)c2C#N)C1 (stereo unspecified)	–	inactive
O=C(O)c1ccc(/C=C/c2ccc3cccc(O)c3n2)cc1	–	inconclusive: 199%
O=C(Nc1ccc2nc(-c3cccs3)[nH]c2c1)c1cccs1	–	inconclusive: 11.9%
COc1ccc(S(=O)(=O)Nc2ccccc2OC)cc1NC(=O)c1cc2ccccc2oc1=O	inconclusive: 29.1 µM [falling, single point]	–
O=S(=O)(NCc1nc(-c2ccccc2)no1)c1ccc(F)cc1	–	inconclusive: 0.193%
Nc1cc(=O)nc(SCC(=O)N(C2CCCCC2)C2CCCCC2)n1-c1ccccc1	–	inactive

SMILES	Potency	activity change, negative = inhibition
COc1ccc2c(c1)cc(C)c1nnc(SCC(=O)N3CCN(C(=O)c4ccco4)CC3)n12	–	inconclusive: -1.75%
CC(C)Cc1nnc(NC(=O)C2CCCC2)s1	–	inconclusive: 1.83%
COc1cc(C(CC(=O)Nc2cccc(C)n2)N2Cc3ccccc3C2=O)cc(OC)c1OC (stereo unspecified)	–	inconclusive: 0.76%
COc1ccc(Cl)cc1N1C(=O)/C(=C\c2sccc2C)N=C1SCC(=O)NC1CC1	inconclusive: 11.6 µM [rising, single point]	–
CCC1(C)Cc2c(sc3nc(NN)n(C)c(=O)c23)CO1 (stereo unspecified)	inconclusive: 2.31 µM [rising, full curve, poor fit]	–
COCCNS(=O)(=O)c1cc(C)c(C)cc1C	–	inactive
Cc1cnc(NC(=O)c2cccs2)s1	–	inconclusive: -3.48%
Oc1ccc(Cl)cc1/C=C/c1ccc2cccc(O)c2n1	inconclusive: 35.5 µM [falling, single point]	–
COc1ccc(-c2nnc(SCC(=O)NCc3cccs3)n2CC(C)C)cc1	–	inconclusive: 9.08%
Cc1ccc(S(=O)(=O)N(CCc2ccccc2)CC(=O)Nc2cc(C)ccc2C)cc1	–	inconclusive: 10.5%
Cc1cc(F)ccc1NS(=O)(=O)c1c(C)nc2scc(C)n2c1=O	–	inconclusive: -8.14%
CC(C)OCCCN(CC(O)c1ccccc1)CC(O)c1ccccc1 (stereo unspecified)	–	inconclusive: -2.02%
C=CCn1c(COc2ccc(Cl)cc2)nnc1SCc1ccc(C#N)cc1	–	inconclusive: -2.54%
COc1c2ccoc2c(OC(C)=O)c2oc(C)cc(=O)c12	–	inconclusive: -1.04%
COc1ccc(-c2cc(-c3ccccc3)c(C#N)c(S(C)(=O)=O)n2)cc1	–	inconclusive: 25.7%
Cc1ccc(CN2CCN(CC(=O)NCc3ccc(Cl)cc3)C2=O)cc1	–	inconclusive: -8.02%
CCOC(=O)c1c(N)sc(C(C)=O)c1C	inconclusive: 35.5 µM [falling, partial curve, poor fit]	–
Cc1nc(NC(=O)c2ccccc2)sc1-c1csc(Nc2cccc(Cl)c2)n1	–	inconclusive: 8%
COc1ccc2c(c1OC)C(=O)N(c1cccc(C(F)(F)F)c1)C2	–	inconclusive: 20.2%
O=C(C1CCCO1)N1CCC(O)(c2ccccc2)CC1 (stereo unspecified)	–	inconclusive: 2.54%
CC(=O)Oc1ccc(OC(C)=O)c2c1CC(C)=C(C)C2	inconclusive: 11.2 µM [falling, partial curve]	–
CCN1CCN(S(=O)(=O)c2ccc(Cl)c(C(=O)Nc3nnc(CC(C)C)s3)c2)CC1	–	inactive
CCN1C(=O)C2C(C1=O)N1C(c3ccccc3)C3C(=O)N(CC)C(=O)C3N1C2c1ccccc1 (stereo unspecified)	inconclusive: 9.2 µM [rising, partial curve, poor fit]	–
COc1ccc(Cl)cc1N=Cc1c(O)c2ccccc2oc1=O	inconclusive: 2.82 µM [falling, partial curve, poor fit]	–
O=C(O)c1cc(N/N=C/C=C/c2ccccc2[N+](=O)[O-])ccc1Cl	inconclusive: 22.4 µM [falling, partial curve]	–
Fc1ccccc1Nc1nc2ccccc2n2nnnc12	inconclusive: 20.6 µM [falling, partial curve, poor fit]	–

SMILES	Potency	activity change, negative = inhibition
COC(=O)c1c(F)c(F)c(N2CCOCC2)c(F)c1F	–	inconclusive: -0.409%
CCOc1cc(C(c2c(C)[nH][nH]c2=O)c2c(C)[nH][nH]c2=O)ccc1OCc1ccc([N+](=O)[O-])cc1	inconclusive: 29.1 µM [falling, single point]	–
COC(=O)c1cc2oc(C)cc2n1CC(=O)Nc1ccc(OC)c(OC)c1OC	–	inconclusive: -14.8%
NC1=NC2(CCCCC2)N(c2ccc(F)cc2F)C(N)=N1	inconclusive: 2.51 µM [falling, partial curve, poor fit]	–
CC(=O)Nc1ccc(C(=O)OCC(=O)/C(C#N)=C(\C)N)cc1	–	inactive
COc1ccc(-c2nn(C)c(=O)c3ccccc23)cc1CNC(=O)c1ccco1	–	inconclusive: -0.906%
O=C(NCCc1ccccc1)c1n[nH]c(=O)c2ccccc12	inconclusive: 35.5 µM [falling, single point]	–
COc1cccc(-c2nc(CS(=O)(=O)CC(=O)NCC(C)c3ccccc3)c(C)o2)c1 (stereo unspecified)	–	inactive
CSc1nnc(-c2ccco2)n1-c1ccccc1	–	inconclusive: 2.65%
CC(=O)c1ccccc1NCC(=O)Nc1ccc(C)cc1	inconclusive: 15.8 µM [falling, single point]	–
COc1cc(NC(=O)CN2C(=O)CN(C)C(=O)c3ccccc32)cc(OC)c1OC	inconclusive: 4.47 µM [falling, partial curve, poor fit]	–
C#Cc1cccc(C(=O)N2CCCC(C(=O)c3ccc(OC)cc3C)C2)c1 (stereo unspecified)	–	inactive
C[C@H](CO)N1C[C@H](C)[C@@H](CN(C)S(=O)(=O)c2ccccc2)Oc2c(NC(=O)Nc3ccc4c(c3)OCO4)cccc2C1=O	–	inconclusive: -6.13%
CCCCn1c(N)c(N(CCOC)C(=O)COC(=O)COc2cc(C)c(Cl)cc2C(C)C)c(=O)[nH]c1=O	inconclusive: 23.1 µM [falling, partial curve, poor fit]	–
CCOC(=O)C1CCN(c2cc(C)nc3cc(-c4cccc(F)c4)nn23)CC1	inconclusive: 14.6 µM [rising, partial curve, poor fit]	–
CCOc1cc2[nH]c(=O)n(CCCC(=O)N3CCN(c4ccc(OC)cc4)CC3)c(=O)c2cc1OCC	–	inactive
COc1ccc(-c2cn(-c3ccc(C)c(C)c3)c(=S)[nH]2)cc1OC	–	inconclusive: -19%
O=C(Nn1cnc2ccccc2c1=O)c1ccc(F)cc1Cl	–	inconclusive: 7.4%
Cc1ccc2oc(=O)c(/C=C(\O)c3ccco3)nc2c1	–	inconclusive: -17.9%
Cc1cnc(NC(=O)CSc2nnc(N)s2)s1	inconclusive: 8.91 µM [rising, partial curve]	–
O=C(Nc1ccccc1F)c1cc2c(s1)-c1ccccc1S(=O)(=O)C2	inconclusive: 15.8 µM [falling, partial curve]	–
Cc1cccc(NS(=O)(=O)c2ccc(C(=O)N3CCCC3)cc2)c1C	–	inactive
CC(=O)c1nc2ccccc2n1S(=O)(=O)c1ccc(C)cc1	–	inconclusive: -0.6%
CCOC(=O)c1nc(C)n(-c2ccc(Cl)cc2)n1	–	inconclusive: 11%
